The text below walks through data of US12419848B2, “Treatment of hyperinflammatory syndrome” (priority 2020, dated 2025).

Values after ≈ are worked out from the molar mass of the structure shown. Read-outs that look alike come from different tables or passages of the source.

For series [1] the following is noted: Patient 1, day 38, subdermal 1 mg/kg/hr.
The nature of series [2]: clinical. Conditions: human, plasma.
For series [3], the target named is T1, P2X7R (Homo sapiens, UniProt Q99572).
T1 sequence (Q99572 1-595): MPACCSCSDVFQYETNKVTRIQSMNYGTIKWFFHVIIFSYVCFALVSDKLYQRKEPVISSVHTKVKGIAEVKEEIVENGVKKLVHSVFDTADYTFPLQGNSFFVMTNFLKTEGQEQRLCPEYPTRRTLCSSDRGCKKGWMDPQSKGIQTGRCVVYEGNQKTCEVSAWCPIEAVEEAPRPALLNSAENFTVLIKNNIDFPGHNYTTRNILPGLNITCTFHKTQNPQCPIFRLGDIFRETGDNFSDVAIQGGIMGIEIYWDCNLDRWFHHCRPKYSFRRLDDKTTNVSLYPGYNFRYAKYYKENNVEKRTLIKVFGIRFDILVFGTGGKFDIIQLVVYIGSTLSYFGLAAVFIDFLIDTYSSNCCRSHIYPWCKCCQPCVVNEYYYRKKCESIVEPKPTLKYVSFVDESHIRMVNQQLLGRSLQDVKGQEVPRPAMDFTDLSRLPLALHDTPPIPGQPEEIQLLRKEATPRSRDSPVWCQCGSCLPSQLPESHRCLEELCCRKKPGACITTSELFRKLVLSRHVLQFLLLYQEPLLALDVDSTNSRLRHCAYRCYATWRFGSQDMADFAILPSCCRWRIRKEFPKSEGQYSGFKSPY
The settings on record: 50% receptor inhibition; cited from earlier work.

The test system of series [4] is severe ARDS from staphylococcus sepsis. The settings on record: continuous infusion 1 mg/kg/hour.
For series [5] the following is noted: cats, intravenous 2 mg/kg; cited from earlier work.
For series [6] the following is noted: cited from earlier work.

`CCN(CC)CC(=O)Nc1c(C)cccc1C` [lidocaine]: in series [1], the lidocaine plasma level is recorded as 2.3. In addition, the concentration at 13 day in series [2] (iv, 0.6 mg/kg, lidocaine plasma concentration, Patient 1, day 13, i.v. 0.6 mg/kg/hr) turned out to be 3400 ng/mL. Besides, the concentration at 14 day in series [2] (iv, 0.6 mg/kg, lidocaine plasma concentration, Patient 1, day 14, i.v. 0.6 mg/kg/hr) amounted to 5400 ng/mL; in series [2] (other: subdermal infusion, 1 mg/kg/hr, lidocaine plasma level, Patient 2, day 14, subdermal 1 mg/kg/hr), 2700 ng/mL. Also, the concentration at 7 day in series [2] (iv, 0.6 mg/kg/hr, lidocaine plasma concentration, Patient 2, day 7, i.v.) amounted to 2200 ng/mL. The same compound yielded a concentration at 8 day in series [2] (iv, 0.6 mg/kg/hr, lidocaine plasma level, Patient 2, day 8, i.v.) of 2900 ng/mL. This compound also returned a concentration at 3 day in series [2] (other: subdermal infusion, 1 mg/kg/hour, Lidocaine plasma level, Patient 4, day 3, continuous subdermal) of 3400 ng/mL. The concentration at 4 day in series [2] (other: subdermal infusion, 1 mg/kg/hour, Lidocaine plasma level, Patient 4, day 4, continuous subdermal) is 4200 ng/mL; in series [2] (other: subdermal infusion, 1 mg/kg/hr, Lidocaine plasma level, Patient 6, day 4, subdermal 1 mg/kg/hr) it was 4600 ng/mL. For the same compound, the concentration at 5 day in series [2] (other: subdermal infusion, 1 mg/kg/hour, lidocaine plasma concentration, Patient 4, day 5, continuous subdermal) amounted to 5200 ng/mL; in series [2] (other: subdermal infusion, 1 mg/kg/hr, Lidocaine plasma level, Patient 6, day 5, subdermal 1 mg/kg/hr), 3400 ng/mL; in series [2] (other: subdermal infusion, 1 mg/kg/hr, lidocaine plasma level, Patient 5, day 5, subdermal 1 mg/kg/hr), 4000 ng/mL. Also, the concentration at 21 day in series [2] (other: subdermal infusion, 1 mg/kg/hr, lidocaine plasma concentration, Patient 1, day 21, subdermal 1 mg/kg/hr) is 2600 ng/mL. In series [2] (other: subdermal infusion, 1 mg/kg/hr, lidocaine plasma concentration, Patient 1, day 31, subdermal 1 mg/kg/hr), this compound displayed a concentration at 31 day of 1200 ng/mL. The compound further displayed a concentration at 2 day in series [2] (other: subdermal infusion, 1 mg/kg/hr, lidocaine plasma level, Patient 3, day 2, subdermal 1 mg/kg/hr) of 3700 ng/mL. In addition, the concentration at 6 day in series [2] (other: subdermal infusion, 1 mg/kg/hr, lidocaine plasma level, Patient 5, day 6, subdermal 1 mg/kg/hr) is 3200 ng/mL. For the same compound, the IC50 value in series [3] is 66 µg/mL (≈ 282 µM). For the same compound, the “time to stabilisation of patient's condition” value in series [4] was no more than 1.5 h. The peak plasma concentration in series [5] was 3.6 µg/mL. Further, the “mean peak plasma concentration” value in series [6] (subcutaneous 10 mg/kg) is 0.77 µg/mL; in series [6] (subcutaneous 20 mg/kg) it was 1.07 µg/mL; in series [6] (subcutaneous 30 mg/kg), 1.69 µg/mL.
